Assay results as given in article doi:10.1101/2025.05.29.656919 (bioRxiv, 2025).
No constants are given. Whether binding was seen depends on the method and setting. Some entries that bind do so weakly or less than the wild type. Tags and fused reporters may be left off the sequences shown.

Tests used:
[1] = target: T1, ATG8a fused with the GAL4 DNA binding domain (pGBKT7) (Arabidopsis) (UniProt Q8LEM4); assay: two-hybrid
T1 sequence: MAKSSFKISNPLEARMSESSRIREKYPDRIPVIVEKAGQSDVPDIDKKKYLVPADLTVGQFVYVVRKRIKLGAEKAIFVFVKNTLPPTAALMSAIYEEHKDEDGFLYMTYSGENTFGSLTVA

[2] = target: T2, ATG8b fused with the GAL4 DNA binding domain (pGBKT7) (Arabidopsis) (UniProt Q9XEB5); assay: two-hybrid
T2 sequence: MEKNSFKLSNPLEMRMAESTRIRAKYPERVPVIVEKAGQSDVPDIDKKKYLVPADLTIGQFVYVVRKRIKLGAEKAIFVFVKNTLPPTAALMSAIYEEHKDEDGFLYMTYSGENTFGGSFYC

[3] = target: T3, ATG8c fused with the GAL4 DNA binding domain (pGBKT7) (Arabidopsis) (UniProt Q8S927); assay: two-hybrid
T3 sequence: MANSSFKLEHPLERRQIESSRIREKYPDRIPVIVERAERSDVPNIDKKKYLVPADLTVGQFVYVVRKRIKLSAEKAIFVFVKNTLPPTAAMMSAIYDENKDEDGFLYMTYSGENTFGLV

[4] = target: T4, ATG8d fused with the GAL4 DNA binding domain (pGBKT7) (Arabidopsis) (UniProt Q9SL04); assay: two-hybrid
T4 sequence: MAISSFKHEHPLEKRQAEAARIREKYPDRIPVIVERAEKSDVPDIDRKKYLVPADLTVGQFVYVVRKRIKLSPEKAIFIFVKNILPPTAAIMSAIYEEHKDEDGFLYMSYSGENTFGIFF

[5] = target: T5, ATG8e fused with the GAL4 DNA binding domain (pGBKT7) (Arabidopsis) (UniProt Q8S926); assay: two-hybrid
T5 sequence: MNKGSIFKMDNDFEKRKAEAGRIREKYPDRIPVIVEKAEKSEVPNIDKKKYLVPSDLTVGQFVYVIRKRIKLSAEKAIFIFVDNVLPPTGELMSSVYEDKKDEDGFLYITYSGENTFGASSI

[6] = target: T6, ATG8f fused with the GAL4 DNA binding domain (pGBKT7) (Arabidopsis) (UniProt Q8VYK7); assay: two-hybrid
T6 sequence: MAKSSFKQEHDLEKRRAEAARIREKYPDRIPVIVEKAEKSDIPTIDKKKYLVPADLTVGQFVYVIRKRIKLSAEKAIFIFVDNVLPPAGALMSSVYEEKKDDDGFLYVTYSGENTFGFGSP

[7] = target: T7, ATG8g fused with the GAL4 DNA binding domain (pGBKT7) (Arabidopsis) (UniProt Q9LZZ9); assay: two-hybrid
T7 sequence: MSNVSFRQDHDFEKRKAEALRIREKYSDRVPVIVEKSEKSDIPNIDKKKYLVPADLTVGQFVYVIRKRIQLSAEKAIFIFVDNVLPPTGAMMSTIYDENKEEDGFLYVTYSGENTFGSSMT

[8] = target: T8, ATG8h fused with the GAL4 DNA binding domain (pGBKT7) (Arabidopsis) (UniProt Q8S925); assay: two-hybrid
T8 sequence: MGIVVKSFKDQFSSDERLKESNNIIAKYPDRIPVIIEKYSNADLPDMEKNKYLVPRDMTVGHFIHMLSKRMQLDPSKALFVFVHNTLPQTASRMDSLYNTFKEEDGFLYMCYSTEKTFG

[9] = target: T9, ATG8i fused with the GAL4 DNA binding domain (pGBKT7) (Arabidopsis) (UniProt Q9LRP7); assay: two-hybrid
T9 sequence: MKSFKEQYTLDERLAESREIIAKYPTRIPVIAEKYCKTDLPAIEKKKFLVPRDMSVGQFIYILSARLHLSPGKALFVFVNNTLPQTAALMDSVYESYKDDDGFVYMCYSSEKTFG

[10] = target: T10, GST-fused VDAC1 N-terminal overhang (Arabidopsis) (UniProt Q9SRH5); assay: pull-down
T10 sequence: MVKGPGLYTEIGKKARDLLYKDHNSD

[11] = target: T11, GST-fused VDAC2 N-terminal overhang (Arabidopsis) (UniProt Q9FJX3); assay: pull-down
T11 sequence: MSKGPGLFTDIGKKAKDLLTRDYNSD

[12] = target: T12, GST-fused VDAC3 N-terminal overhang (Arabidopsis) (UniProt Q9SMX3); assay: pull-down
T12 sequence: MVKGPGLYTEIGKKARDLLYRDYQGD

[13] = target: T13, Glutathione S-transferase-fused VDAC1 (Arabidopsis, UniProt Q9SRH5 1-276); assay: pull-down
T13 sequence (looked up): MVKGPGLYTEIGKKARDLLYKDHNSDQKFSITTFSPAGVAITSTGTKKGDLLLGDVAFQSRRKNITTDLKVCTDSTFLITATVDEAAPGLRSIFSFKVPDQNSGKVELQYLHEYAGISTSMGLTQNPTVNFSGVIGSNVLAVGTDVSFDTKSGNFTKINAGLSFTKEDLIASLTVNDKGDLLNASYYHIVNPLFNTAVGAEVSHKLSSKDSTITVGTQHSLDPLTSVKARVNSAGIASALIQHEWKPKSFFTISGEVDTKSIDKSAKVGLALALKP

[14] = target: T14, Glutathione S-transferase-fused VDAC2 (Arabidopsis, UniProt Q9FJX3 1-276); assay: pull-down
T14 sequence (looked up): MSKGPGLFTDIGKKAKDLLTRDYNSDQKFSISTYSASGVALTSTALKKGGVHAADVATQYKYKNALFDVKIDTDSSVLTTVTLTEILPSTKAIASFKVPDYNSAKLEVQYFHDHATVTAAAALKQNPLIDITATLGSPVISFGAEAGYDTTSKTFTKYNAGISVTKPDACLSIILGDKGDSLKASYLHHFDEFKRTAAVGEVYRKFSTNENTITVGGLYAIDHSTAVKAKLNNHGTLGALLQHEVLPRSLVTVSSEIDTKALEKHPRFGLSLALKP

[15] = target: T15, Glutathione S-transferase-fused VDAC3 (Arabidopsis, UniProt Q9SMX3 1-274); assay: pull-down
T15 sequence (looked up): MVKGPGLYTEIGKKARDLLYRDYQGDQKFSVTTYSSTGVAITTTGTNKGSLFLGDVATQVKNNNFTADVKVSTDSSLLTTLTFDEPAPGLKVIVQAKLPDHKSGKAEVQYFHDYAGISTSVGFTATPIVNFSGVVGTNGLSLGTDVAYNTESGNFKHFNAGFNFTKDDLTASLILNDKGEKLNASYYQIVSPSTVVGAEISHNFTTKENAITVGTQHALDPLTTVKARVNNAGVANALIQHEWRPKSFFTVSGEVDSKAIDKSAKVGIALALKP

| Binder | binding [1] | binding [2] | binding [3] | binding [4] | binding [5] | binding [6] | binding [7] | binding [8] | binding [9] | binding [10] | binding [11] | binding [12] | binding [13] | binding [14] | binding [15] |
| --- | --- | --- | --- | --- | --- | --- | --- | --- | --- | --- | --- | --- | --- | --- | --- |
| VDAC1 fused with the activating domain (pGADT7) (protein, UniProt Q9SRH5 1-276) MVKGPGLYTEIGKKARDLLYKDHNSDQKFSITTFSPAGVAITSTGTKKGDLLLGDVAFQSRRKNITTDLKVCTDSTFLITATVDEAAPGLRSIFSFKVPDQNSGKVELQYLHEYAGISTSMGLTQNPTVNFSGVIGSNVLAVGTDVSFDTKSGNFTKINAGLSFTKEDLIASLTVNDKGDLLNASYYHIVNPLFNTAVGAEVSHKLSSKDSTITVGTQHSLDPLTSVKARVNSAGIASALIQHEWKPKSFFTISGEVDTKSIDKSAKVGLALALKP | binds | binds | binds | binds | binds | binds | binds | binds | binds | – | – | – | – | – | – |
| VDAC2 fused with the activating domain (pGADT7) (protein, UniProt Q9FJX3 1-276) MSKGPGLFTDIGKKAKDLLTRDYNSDQKFSISTYSASGVALTSTALKKGGVHAADVATQYKYKNALFDVKIDTDSSVLTTVTLTEILPSTKAIASFKVPDYNSAKLEVQYFHDHATVTAAAALKQNPLIDITATLGSPVISFGAEAGYDTTSKTFTKYNAGISVTKPDACLSIILGDKGDSLKASYLHHFDEFKRTAAVGEVYRKFSTNENTITVGGLYAIDHSTAVKAKLNNHGTLGALLQHEVLPRSLVTVSSEIDTKALEKHPRFGLSLALKP | binds | binds | binds | binds | binds | binds | binds | binds | binds | – | – | – | – | – | – |
| VDAC3 fused with the activating domain (pGADT7) (protein, UniProt Q9SMX3 1-274) MVKGPGLYTEIGKKARDLLYRDYQGDQKFSVTTYSSTGVAITTTGTNKGSLFLGDVATQVKNNNFTADVKVSTDSSLLTTLTFDEPAPGLKVIVQAKLPDHKSGKAEVQYFHDYAGISTSVGFTATPIVNFSGVVGTNGLSLGTDVAYNTESGNFKHFNAGFNFTKDDLTASLILNDKGEKLNASYYQIVSPSTVVGAEISHNFTTKENAITVGTQHALDPLTTVKARVNNAGVANALIQHEWRPKSFFTVSGEVDSKAIDKSAKVGIALALKP | binds | binds | binds | binds | binds | binds | binds | binds | binds | – | – | – | – | – | – |
| ATG8e with LDS mutation (Y51A, L52A) (protein, UniProt Q8S926 1-118) MNKGSIFKMDNDFEKRKAEAGRIREKYPDRIPVIVEKAEKSEVPNIDKKKAAVPSDLTVGQFVYVIRKRIKLSAEKAIFIFVDNVLPPTGELMSSVYEDKKDEDGFLYITYSGENTFG | – | – | – | – | – | – | – | – | – | no binding | no binding | no binding | no binding | no binding | no binding |
